# Assay results as given in patent US5641486.
# Chains of the proteins cited; added tags and fusions are not shown. A line that says so, or that is headed by a name, gives the form on record, which may keep a tag or linker.
# ATF1/CREB (HeLa cell extract CRE-binding proteins) (Homo sapiens), one chain, as listed by the source, chain 1 of 2: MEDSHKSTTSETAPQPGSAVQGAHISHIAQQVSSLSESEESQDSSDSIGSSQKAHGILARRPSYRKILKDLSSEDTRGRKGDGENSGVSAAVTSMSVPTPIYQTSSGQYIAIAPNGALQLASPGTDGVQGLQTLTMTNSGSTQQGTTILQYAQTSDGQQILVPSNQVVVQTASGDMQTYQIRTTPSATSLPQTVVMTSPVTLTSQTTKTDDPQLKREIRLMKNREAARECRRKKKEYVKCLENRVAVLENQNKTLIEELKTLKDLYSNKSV
# ATF1/CREB (HeLa cell extract CRE-binding proteins) (Homo sapiens), one chain, as listed by the source, chain 2 of 2: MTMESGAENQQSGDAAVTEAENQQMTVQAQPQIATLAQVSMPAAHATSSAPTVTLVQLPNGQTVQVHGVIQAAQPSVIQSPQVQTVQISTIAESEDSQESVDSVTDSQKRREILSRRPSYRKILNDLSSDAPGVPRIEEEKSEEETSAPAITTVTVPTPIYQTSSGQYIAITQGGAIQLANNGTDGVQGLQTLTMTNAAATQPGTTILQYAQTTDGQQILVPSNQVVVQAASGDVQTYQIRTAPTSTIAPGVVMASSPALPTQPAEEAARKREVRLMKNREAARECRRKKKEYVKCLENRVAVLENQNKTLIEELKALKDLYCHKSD
# At least one result comes from cells or an extract, where the contact may be indirect.
# System: ATF1/CREB (HeLa cell extract CRE-binding proteins) (Homo sapiens)
# Experiment: EMSA
# Settings: MAb 1, 3, 5 supershift most CRE binding protein, MAb 4 reduced complexes, protein in an extract, protein details: HeLa extract, label: 32P
sequence,measurement,value
AGAGATTGCCTGACGTCAGAGAGCTAG (double strand) [CRE oligonucleotide],binding result,binds
